Results from patent US20150373970A1, “ANTIMICROBIAL COMPOSITIONS, WIPES, AND METHODS” (3M INNOVATIVE PROPERTIES COMPANY, priority 2013, published 2015).

Test: Residue/haze left behind on drying of antimicrobial lipid
Conditions: antimicrobial lipid in dried composition

For `CCCCCCCCCCCC(=O)OCC(O)CO` (stereo not shown) [glycerol monolaurate], the “residue / haze left behind by drying” value was “significant residue”.
